In patent publication US11160742B2, “Methods and compositions for improving hair color fastness and rejuvenating hair color” (L'Oreal, priority 2018, dated 2021):

Assay: Color deposition/rejuvenation (ΔE) on hair swatches soaked in SLES, dye and ionic liquid
Conditions: 6% SLES

With `CCn1cc[n+](CC)c1` [EEIM OAc, 1,3-Ethyl Imidazolium Acetate] the “ΔE (color deposition)” value (Basic Orange 31 0.005%, with vs without 10% EEIM OAc, 10 minutes, FIG. 5, higher ΔE = more deposition) was “the ΔE value significantly increases”, the “ΔE (color deposition)” value (Basic Red 51 0.005%, with vs without ionic liquid, FIG. 6) was “ΔE values significantly increase” and the “ΔE (color deposition)” value (Basic Yellow 87 0.005%, with vs without ionic liquid, FIG. 7) was “ΔE increases”.
